PubChem BioAssay AID192 (DTP/NCI, 2004)
The list does not hold the whole screen: it gathers tests that were run many times, whatever their T/C, doses with no T/C, and many T/C values between a quarter and a half above the control. Other doses and runs of a compound stand elsewhere. T/C is the treated group as % of the vehicle group. Some doses have a count of surviving animals in place of a T/C: the source holds a T/C of zero for them, seemingly a mark for toxic or unscored doses. Some survivor counts are full or nearly so, which does not show that the dose was tolerated: survival well below the control is almost never listed, so the zero probably covers shortened survival too. Counts of survivors are from the toxicity check (mostly the fifth day) where no day follows; animals may have died later. Schedule codes are those of the source, read here as Q, the interval in days (D) or hours (H), X, the number of doses. Some doses were run more than once; the values are given in rising order. Signs of the kind (2×) stand for listed records that agree. For survival time, the PubChem record calls one and a half times the control and up active, and a quarter to a half above the control has no call in these data; cut-offs in other NCI protocols can differ. Some T/C values carry the count of animals alive at the toxicity check (mostly the fifth day); without a count, all were alive then.

Test system: BDF1 mice, B16 melanoma ip, median survival T/C
Test: NCI In Vivo Anticancer Drug Screen. Data for tumor model B16 Melanoma (intraperitoneal) in B6D2F1 (BDF1) mice
Conditions: T/C endpoint: median survival time, higher T/C = longer survival
Outline: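 Vehicle-treated animals serve as the reference (C); treated animals (T) are scored for survival or tumor size after tumor transplantation.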

[1] = dose: 200.0 mg/kg/injection, schedule: Q01DX009 (ip), vehicle: Klucel (hydroxypropylcellulose) (HPC)
[2] = dose: 400.0 mg/kg/injection, schedule: Q01DX009 (ip), vehicle: Klucel (hydroxypropylcellulose) (HPC)
[3] = dose: 200.0 mg/kg/injection, schedule: Q01DX009 (ip), vehicle: saline with Tween-80
[4] = dose: 25.0 mg/kg/injection, schedule: Q01DX009 (ip), vehicle: saline with Tween-80
[5] = dose: 50.0 mg/kg/injection, schedule: Q01DX009 (ip), vehicle: saline with Tween-80
[6] = dose: 100.0 mg/kg/injection, schedule: Q01DX009 (ip), vehicle: saline with Tween-80
[7] = dose: 25.0 mg/kg/injection, schedule: Q01DX009 (ip), vehicle: water
[8] = dose: 400.0 mg/kg/injection, schedule: Q01DX009 (ip), vehicle: saline with Tween-80
[9] = dose: 400.0 mg/kg/injection, schedule: Q01DX009 (ip), vehicle: saline
[10] = dose: 200.0 mg/kg/injection, schedule: Q01DX009 (ip), vehicle: saline

SMILES: C=COC(=O)CCCCCCCCCCCCCCCCC
- survivor count (dose: 100.0 mg/kg/injection, schedule: Q01DX009 (ip), vehicle: Klucel (hydroxypropylcellulose) (HPC)): 6 of 6
- survivor count [1]: 6 of 6
- survivor count [2]: 6 of 6

SMILES: CC1CN1c1nc(N2CC2C)nc(N2CC2C)n1 (centres undefined)
- survivor count (dose: 1.0 mg/kg/injection, schedule: Q01DX009 (ip), vehicle: saline): 10 of 10
- survivor count (dose: 2.0 mg/kg/injection, schedule: Q01DX009 (ip), vehicle: saline): 10 of 10
- survivor count (dose: 4.0 mg/kg/injection, schedule: Q01DX009 (ip), vehicle: saline): 10 of 10
- survivor count (dose: 8.0 mg/kg/injection, schedule: Q01DX009 (ip), vehicle: saline): 10 of 10
- survivor count (dose: 16.0 mg/kg/injection, schedule: Q01DX009 (ip), vehicle: saline with Tween-80): 3 of 10
- survivor count (dose: 16.0 mg/kg/injection, schedule: Q01DX009 (ip), vehicle: saline): 6 of 10
- survivor count (dose: 16.0 mg/kg/injection, schedule: Q04DX003 (ip), vehicle: saline): 10 of 10

SMILES: Nc1nc(=S)c2ncn(C3CC(O)C(CO)O3)c2[nH]1 (centres undefined)
- survivor count (dose: 10.0 mg/kg/injection, schedule: Q01DX009 (ip), vehicle: saline with Tween-80): 6 of 6
- survivor count (dose: 20.0 mg/kg/injection, schedule: Q01DX009 (ip), vehicle: saline with Tween-80): 6 of 6
- survivor count (dose: 100.0 mg/kg/injection, schedule: Q01DX009 (ip), vehicle: saline sonified): 6 of 6
- survivor count (dose: 200.0 mg/kg/injection, schedule: Q01DX009 (ip), vehicle: saline sonified): 6 of 6

SMILES: CN(C)N=Nc1cccc(C(N)=O)c1
- T/C (dose: 40.0 mg/kg/injection, schedule: Q01DX009 (ip), vehicle: Klucel (hydroxypropylcellulose) (HPC)): 126 % of control (2×)
- survivor count (dose: 160.0 mg/kg/injection, schedule: Q01DX009 (ip), vehicle: Klucel (hydroxypropylcellulose) (HPC)): 10 of 10

SMILES: CCOC(=O)C(=CN(C(C)C)C(C)C)C(=O)OCC
- survivor count [3]: 9 of 10

SMILES: CCN(CC)Cc1ncccc1O
- survivor count [1]: 9 of 10

SMILES: C=CCOCC(O)CN(C)c1ccccc1 (centres undefined)
- survivor count (dose: 200.0 mg/kg/injection, schedule: Q04DX003 (ip), vehicle: Klucel (hydroxypropylcellulose) (HPC)): 10 of 10

SMILES: CCCCn1c(O)c(C=N)c(=O)n(CCCC)c1=O
- survivor count (dose: 12.5 mg/kg/injection, schedule: Q01DX009 (ip), vehicle: saline with Tween-80): 10 of 10
- survivor count [4]: 10 of 10
- survivor count [5]: 9 of 10
- survivor count [6]: 7 of 10

SMILES: COCC12CCC(OC)C34C5CC6(O)C(OC)CC(OC(C)=O)(C5C6OC(=O)c5ccccc5)C(C(OC)C13)C4N(C)C2 (centres undefined)
- survivor count (dose: 0.13 mg/kg/injection, schedule: Q01DX009 (ip), vehicle: Klucel (hydroxypropylcellulose) (HPC)): 10 of 10
- survivor count (dose: 0.25 mg/kg/injection, schedule: Q01DX009 (ip), vehicle: Klucel (hydroxypropylcellulose) (HPC)): 9 of 10
- survivor count (dose: 0.5 mg/kg/injection, schedule: Q01DX009 (ip), vehicle: Klucel (hydroxypropylcellulose) (HPC)): 10 of 10
- survivor count (dose: 1.0 mg/kg/injection, schedule: Q01DX009 (ip), vehicle: Klucel (hydroxypropylcellulose) (HPC)): 10 of 10

SMILES: O=C(O)C1CC1.[Ag]
- survivor count [7]: 4 of 10

SMILES: O=C(O)CC(NC(=O)c1ccccc1)C(=O)O (centres undefined)
- survivor count [6]: 10 of 10
- survivor count [3]: 10 of 10
- survivor count [8]: 8 of 10

SMILES: Cc1ccc([N+](=O)[O-])cc1NC(=O)Oc1ccc(Cl)cc1Cl
- survivor count [6]: 10 of 10

SMILES: C/C(Cc1ccccc1)=N\[N+](C)(C)C
- survivor count (dose: 300.0 mg/kg/injection, schedule: Q04DX003 (ip), vehicle: saline): 1 of 10

SMILES: S=C(Nc1ccccn1)Nc1ccccn1
- survivor count [1]: 7 of 7

SMILES: Oc1cc2c3c(c1)c1cc4c(cc1c[n+]3CC2)OCO4
- T/C (dose: 6.25 mg/kg/injection, schedule: Q01DX009 (ip), vehicle: distilled water + Tween-80): 127 % of control
- T/C (dose: 12.5 mg/kg/injection, schedule: Q01DX009 (ip), vehicle: distilled water + Tween-80): 127 % of control
- T/C (dose: 12.5 mg/kg/injection, schedule: Q01DX009 (ip), vehicle: water): 130 % of control
- T/C [7]: 127 % of control
- survivor count (dose: 50.0 mg/kg/injection, schedule: Q01DX009 (ip), vehicle: distilled water + Tween-80): 4 of 10

SMILES: COc1cccc(N2C(=O)CSC2=S)c1
- survivor count [2]: 1 of 10

SMILES: OC(Cc1nc2ccccc2s1)(C(F)(F)F)C(F)(F)F
- T/C [3]: 125 % of control
- survivor count (dose: 200.0 mg/kg/injection, schedule: Q04DX003 (ip), vehicle: saline with Tween-80): 8 of 10

SMILES: COc1cccc2c1C(=O)c1c(O)c3c(c(O)c1C2=O)CC(O)(C(C)=O)CC3O (centres undefined)
- survivor count (dose: 0.25 mg/kg/injection, schedule: Q01DX009 (ip), vehicle: saline): 10 of 10
- survivor count (dose: 8.0 mg/kg/injection, schedule: Q04DX003 (ip), vehicle: saline): 8 of 10

SMILES: C=CCNc1nc2c(s1)CCc1cc(OC)c(OC)cc1-2
- survivor count [8]: 7 of 10

SMILES: O=[N+]([O-])c1ccc2c(N=Nc3ccc4ccccc4c3O)c(O)cc(S(=O)(=O)O)c2c1
- survivor count (dose: 150.0 mg/kg/injection, schedule: Q01DX009 (ip), vehicle: Klucel (hydroxypropylcellulose) (HPC)): 10 of 10

SMILES: OCC1OC(n2cnc3cc(Cl)c(Cl)cc32)C(O)C1O (centres undefined)
- T/C (dose: 6.25 mg/kg/injection, schedule: Q01DX009 (ip), vehicle: saline with Tween-80): 127 % of control
- T/C [5]: 125 % of control
- T/C [6]: 125 % of control
- survivor count [3]: 3 of 10 (2×) and 8 of 10

SMILES: CCN1C(=O)CN(CCN2CC(=O)N(c3ccccc3)C2=S)C1=S
- T/C (dose: 75.0 mg/kg/injection, schedule: Q01DX009 (ip), vehicle: saline with Tween-80): 135 % of control [9 of 10 alive]
- T/C [6]: 134 % of control

SMILES: NC(=O)C(N)=O
- survivor count [2]: 10 of 10

SMILES: CS(=O)(=O)OCCN1CCC2(CC1)SSC1(CCN(CCOS(C)(=O)=O)CC1)S2
- survivor count (dose: 12.5 mg/kg/injection, schedule: Q01DX009 (ip), vehicle: saline): 10 of 10
- survivor count (dose: 25.0 mg/kg/injection, schedule: Q01DX009 (ip), vehicle: saline): 1 of 10

SMILES: CCCCCCCCCCCC(c1ccccc1)[N+](C)(C)C (centres undefined)
- survivor count (dose: 16.0 mg/kg/injection, schedule: Q01DX009 (ip), vehicle: saline sonified): 5 of 6

SMILES: CC1CCCN(c2ccc([N+](=O)[O-])cc2[N+](=O)[O-])C1 (centres undefined)
- survivor count [1]: 9 of 10

SMILES: C1CCNCC1
- survivor count [9]: 9 of 10

SMILES: CC(NC(=O)C1CCCN1C(=O)OCc1ccccc1)C(=O)O (centres undefined)
- survivor count [3]: 10 of 10
- survivor count [8]: 10 of 10

SMILES: C=CC(=O)NCNC(=O)C=C
- survivor count [3]: 2 of 10
- survivor count [10]: 10 of 10
- survivor count [8]: 0 of 10
- survivor count [9]: 0 of 10

SMILES: N#CCCNC(Cc1ccc(O)cc1)C(=O)O (centres undefined)
- survivor count (dose: 12.5 mg/kg/injection, schedule: Q01DX009 (ip), vehicle: Klucel (hydroxypropylcellulose) (HPC)): 10 of 10
- survivor count (dose: 115.0 mg/kg/injection, schedule: Q01DX009 (ip), vehicle: Klucel (hydroxypropylcellulose) (HPC)): 10 of 10
- survivor count (dose: 170.0 mg/kg/injection, schedule: Q01DX009 (ip), vehicle: Klucel (hydroxypropylcellulose) (HPC)): 1 of 10
- survivor count (dose: 225.0 mg/kg/injection, schedule: Q04DX003 (ip), vehicle: Klucel (hydroxypropylcellulose) (HPC)): 4 of 10

SMILES: O=c1c(O)c(-c2cc(O)c(O)c(O)c2)oc2cc(O)cc(O)c12
- survivor count (dose: 200.0 mg/kg/injection, schedule: Q02DX009 (ip), vehicle: saline with Tween-80): 10 of 10
- survivor count (dose: 400.0 mg/kg/injection, schedule: Q02DX009 (ip), vehicle: saline with Tween-80): 10 of 10

SMILES: Cc1ccc(C(=O)NCCCOc2ccc(N3C(N)=NC(N)=NC3(C)C)cc2Cl)cc1S(=O)(=O)F
- survivor count (dose: 50.0 mg/kg/injection, schedule: Q01DX009 (ip), vehicle: saline): 10 of 10
- survivor count (dose: 100.0 mg/kg/injection, schedule: Q01DX009 (ip), vehicle: saline): 0 of 10
- survivor count [10]: 0 of 10

SMILES: Cc1ccccc1OCC(O)CO (centres undefined)
- survivor count [4]: 10 of 10
